Experimental findings from PMC8132058 are described below.

The chains behind the UniProt entries cited, without tags or fusion partners.
UniProt Q16531: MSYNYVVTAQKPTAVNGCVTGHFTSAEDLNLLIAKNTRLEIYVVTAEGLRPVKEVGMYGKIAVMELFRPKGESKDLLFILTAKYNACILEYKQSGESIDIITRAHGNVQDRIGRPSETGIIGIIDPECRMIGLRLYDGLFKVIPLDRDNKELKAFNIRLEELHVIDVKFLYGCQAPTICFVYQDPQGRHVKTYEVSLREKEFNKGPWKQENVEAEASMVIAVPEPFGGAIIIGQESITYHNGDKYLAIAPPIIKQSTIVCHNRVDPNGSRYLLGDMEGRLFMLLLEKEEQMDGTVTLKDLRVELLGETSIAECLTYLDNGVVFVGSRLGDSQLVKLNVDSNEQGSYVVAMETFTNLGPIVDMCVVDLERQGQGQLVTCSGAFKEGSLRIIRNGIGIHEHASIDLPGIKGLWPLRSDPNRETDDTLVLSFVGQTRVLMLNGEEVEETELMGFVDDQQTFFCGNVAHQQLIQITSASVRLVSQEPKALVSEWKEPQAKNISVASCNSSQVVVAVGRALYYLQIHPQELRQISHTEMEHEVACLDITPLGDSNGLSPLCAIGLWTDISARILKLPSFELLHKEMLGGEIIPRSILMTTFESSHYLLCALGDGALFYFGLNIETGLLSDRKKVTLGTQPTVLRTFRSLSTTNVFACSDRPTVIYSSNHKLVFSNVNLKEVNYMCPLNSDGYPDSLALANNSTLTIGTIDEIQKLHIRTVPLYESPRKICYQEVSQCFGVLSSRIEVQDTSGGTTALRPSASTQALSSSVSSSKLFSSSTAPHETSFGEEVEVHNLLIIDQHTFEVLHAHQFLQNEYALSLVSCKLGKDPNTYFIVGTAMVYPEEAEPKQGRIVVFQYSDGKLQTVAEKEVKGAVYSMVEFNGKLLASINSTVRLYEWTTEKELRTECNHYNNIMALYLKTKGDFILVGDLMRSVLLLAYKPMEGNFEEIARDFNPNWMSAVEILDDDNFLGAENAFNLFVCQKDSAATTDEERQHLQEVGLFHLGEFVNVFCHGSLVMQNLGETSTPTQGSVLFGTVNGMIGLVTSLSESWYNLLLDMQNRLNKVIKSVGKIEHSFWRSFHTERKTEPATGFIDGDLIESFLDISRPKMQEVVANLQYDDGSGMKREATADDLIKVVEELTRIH

The target in assay [1] is T1, CUL4B (endogenous) (human (endogenous in MCF-7, MDA-MB-231, HEK293T)), Q13620.
T1 chain: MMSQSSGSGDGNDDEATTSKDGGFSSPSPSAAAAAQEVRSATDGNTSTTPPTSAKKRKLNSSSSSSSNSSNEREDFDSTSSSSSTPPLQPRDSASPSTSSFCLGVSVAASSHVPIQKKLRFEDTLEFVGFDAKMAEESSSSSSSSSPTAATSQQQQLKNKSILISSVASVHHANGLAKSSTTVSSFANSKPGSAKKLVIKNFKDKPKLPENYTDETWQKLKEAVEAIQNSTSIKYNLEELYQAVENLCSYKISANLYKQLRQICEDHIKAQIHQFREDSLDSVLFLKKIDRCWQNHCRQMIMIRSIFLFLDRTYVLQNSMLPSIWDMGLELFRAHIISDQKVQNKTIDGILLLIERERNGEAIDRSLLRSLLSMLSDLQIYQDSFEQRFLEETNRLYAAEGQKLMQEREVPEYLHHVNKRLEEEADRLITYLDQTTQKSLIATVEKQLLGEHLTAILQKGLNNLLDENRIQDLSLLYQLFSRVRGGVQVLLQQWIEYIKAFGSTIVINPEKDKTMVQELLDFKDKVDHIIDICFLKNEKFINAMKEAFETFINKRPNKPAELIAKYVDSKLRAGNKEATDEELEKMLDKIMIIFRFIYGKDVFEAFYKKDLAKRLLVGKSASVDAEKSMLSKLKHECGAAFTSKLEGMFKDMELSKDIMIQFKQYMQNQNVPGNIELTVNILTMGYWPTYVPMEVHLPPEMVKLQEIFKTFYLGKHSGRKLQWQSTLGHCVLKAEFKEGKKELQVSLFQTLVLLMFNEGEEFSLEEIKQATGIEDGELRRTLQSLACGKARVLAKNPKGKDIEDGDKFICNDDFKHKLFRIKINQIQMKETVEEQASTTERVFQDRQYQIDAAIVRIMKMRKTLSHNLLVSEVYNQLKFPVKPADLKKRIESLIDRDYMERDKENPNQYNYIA
Description: co-IP; endogenous proteins, MDA-MB-231 cells; IP with anti-CUL4B, immunoblot. The note with it: remark: other sources report otherwise. (In western blotting, separated proteins are transferred to a membrane and probed.)

Assay [2] has as its target CUL4B (endogenous) (human (endogenous in MCF-7, MDA-MB-231, HEK293T)) (UniProt Q13620). The experiment in a line: co-IP; endogenous proteins, MCF-7 whole-cell lysates (50 mM Tris-HCl pH 8.0, 150 mM NaCl, 0.5% NP40); IP with anti-CUL4B, anti-DDB1 or anti-ROC1, 12 h at 4 °C, immunoblot.
The target of assay [3] is DDB1 (endogenous) (human (endogenous in MCF-7, MDA-MB-231, HEK293T)) (UniProt Q16531). The assay is described as above.

No constants are given. Whether binding was seen depends on the method and setting. Binding seen in cells or lysates may run through a third protein. Some entries that bind do so weakly or less than the wild type.

B1: ZEB1 (endogenous), P37275 1-1124 (protein)
chain: MADGPRCKRRKQANPRRNNVTNYNTVVETNSDSDDEDKLHIVEEESVTDAADCEGVPEDDLPTDQTVLPGRSSEREGNAKNCWEDDRKEGQEILGPEAQADEAGCTVKDDECESDAENEQNHDPNVEEFLQQQDTAVIFPEAPEEDQRQGTPEASGHDENGTPDAFSQLLTCPYCDRGYKRFTSLKEHIKYRHEKNEDNFSCSLCSYTFAYRTQLERHMTSHKSGRDQRHVTQSGCNRKFKCTECGKAFKYKHHLKEHLRIHSGEKPYECPNCKKRFSHSGSYSSHISSKKCISLIPVNGRPRTGLKTSQCSSPSLSASPGSPTRPQIRQKIENKPLQEQLSVNQIKTEPVDYEFKPIVVASGINCSTPLQNGVFTGGGPLQATSSPQGMVQAVVLPTVGLVSPISINLSDIQNVLKVAVDGNVIRQVLENNQANLASKEQETINASPIQQGGHSVISAISLPLVDQDGTTKIIINYSLEQPSQLQVVPQNLKKENPVATNSCKSEKLPEDLTVKSEKDKSFEGGVNDSTCLLCDDCPGDINALPELKHYDLKQPTQPPPLPAAEAEKPESSVSSATGDGNLSPSQPPLKNLLSLLKAYYALNAQPSAEELSKIADSVNLPLDVVKKWFEKMQAGQISVQSSEPSSPEPGKVNIPAKNNDQPQSANANEPQDSTVNLQSPLKMTNSPVLPVGSTTNGSRSSTPSPSPLNLSSSRNTQGYLYTAEGAQEEPQVEPLDLSLPKQQGELLERSTITSVYQNSVYSVQEEPLNLSCAKKEPQKDSCVTDSEPVVNVIPPSANPINIAIPTVTAQLPTIVAIADQNSVPCLRALAANKQTILIPQVAYTYSTTVSPAVQEPPLKVIQPNGNQDERQDTSSEGVSNVEDQNDSDSTPPKKKMRKTENGMYACDLCDKIFQKSSSLLRHKYEHTGKRPHECGICKKAFKHKHHLIEHMRLHSGEKPYQCDKCGKRFSHSGSYSQHMNHRYSYCKREAEERDSTEQEEAGPEILSNEHVGARASPSQGDSDERESLTREEDEDSEKEEEEEDKEMEELQEEKECEKPQGDEEEEEEEEEVEEEEVEEAENEGEEAKTEGLMKDDRAESQASSLGQKVGESSEQVSEEKTNEA
Consider B1, for which the binding entry in assay [1] is on record as “binds”.

B2: TBL1 (endogenous) (protein, UniProt O60907 1-577)
chain: MTELAGASSSCCHRPAGRGAMQSVLHHFQRLRGREGGSHFINTSSPRGEAKMSITSDEVNFLVYRYLQESGFSHSAFTFGIESHISQSNINGTLVPPAALISILQKGLQYVEAEISINEDGTVFDGRPIESLSLIDAVMPDVVQTRQQAFREKLAQQQASAAAAAAAATAAATAATTTSAGVSHQNPSKNREATVNGEENRAHSVNNHAKPMEIDGEVEIPSSKATVLRGHESEVFICAWNPVSDLLASGSGDSTARIWNLNENSNGGSTQLVLRHCIREGGHDVPSNKDVTSLDWNTNGTLLATGSYDGFARIWTEDGNLASTLGQHKGPIFALKWNRKGNYILSAGVDKTTIIWDAHTGEAKQQFPFHSAPALDVDWQNNTTFASCSTDMCIHVCRLGCDRPVKTFQGHTNEVNAIKWDPSGMLLASCSDDMTLKIWSMKQEVCIHDLQAHNKEIYTIKWSPTGPATSNPNSNIMLASASFDSTVRLWDIERGVCTHTLTKHQEPVYSVAFSPDGKYLASGSFDKCVHIWNTQSGNLVHSYRGTGGIFEVCWNARGDKVGASASDGSVCVLDLRK
Consider B2, for which the binding result in assay [2] and in assay [3] was “binds” throughout.
